In PubChem BioAssay AID493014 (National Center for Advancing Translational Sciences (NCATS), 2011):
Hit rate of the full screen: of about 340,000 compounds, about 170 (0.05%) were called active. The inconclusive results got no clear call from the source; some entries with a clear call stand among them for comparison. Calls come from the whole dose curve; as a rule, active = well fitted inhibition curve with a large enough effect in the signal ratio, with a control signal flat (not every such curve was filed as active); inconclusive = small, poorly fitted or top-dose-only effect, or effect the other way, or a change in a side signal; inactive = flat fitted curve, though single readings scatter; the % refers to the signal ratio. Potencies of inconclusive entries are doubtful fits and often do not repeat.

Experiment: qHTS Assay to Find Inhibitors of Chronic Active B-Cell Receptor Signaling;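 for activity change, negative = inhibition: plate controls were basal doxycycline-induced cells for no effect and cells given 10 µM MG132 for full effect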
Details: ABC-DLBCL IkBa-CBG/CBR reporter, luminescence ratio (green luciferase fused to IkBa over red control in TMD8 lymphoma cells), 4 h; activity change, negative = inhibition: at 46.1 µM (top of the series)
Procedure, shortened: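 Concentration-response series (up to 46 uM) were applied to TMD8 dual-reporter cells for 4 h at 37C with doxycycline. Green/red ratio, after filter-overlap correction, defined %Activity; red signal alone was normalised to basal cells and zero luminescence.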
Potency is the fitted concentration of half-maximal effect.

| Structure (SMILES) | activity change, negative = inhibition | Potency |
| --- | --- | --- |
| O=C1/C(=C\c2ccc(O)c(O)c2)SC(=S)N1Cc1ccccc1 | inactive | – |
| CCn1cc(C(=O)N2CC=C(c3ccccc3)CC2)c(=O)c2ccc(C)nc21 | – | inconclusive: 6.31 µM [falling, partial curve] |
| CCOC(=O)c1cnn(-c2ccccc2)c1N | – | inconclusive: 16.4 µM [falling, single point] |
| CC(C)C[C@H](NC(=O)N1CCn2c1nc1ccccc12)C(=O)NCCc1ccccc1 | inconclusive: 11.2% | – |
| CNC(=O)c1ccccc1NC(=O)c1cccc(S(=O)(=O)N2CCCCC2)c1 | – | inconclusive: 2.82 µM [falling, partial curve, poor fit] |
| OCc1cnc(SCc2ccccc2)n1Cc1ccccc1 | inactive | – |
| Cc1ccc(-c2c(C(=O)Nc3ccccc3F)oc(=O)c3ccccc23)cc1 | – | inconclusive: 2.51 µM [rising, partial curve, poor fit] |
| O=C(NCc1ccco1)c1ccc2nc3sc4c(c3c(=O)n2c1)CCCC4 | inactive | – |
| C/C(=N\NC(=O)c1ccc(N/N=C(\C)c2ccc(O)cc2)cc1)c1ccc(O)cc1 | – | inconclusive: 3.55 µM [falling, full curve, poor fit] |
| Cc1nnc(NC(=O)c2sc3nc(-c4cccs4)cc(C(F)(F)F)c3c2N)s1 | inconclusive: 19.1% | – |
| COc1ccc2[nH]c3c(=O)n(/N=C/[C@H]4C(C)C=C(C)CC4C)c(=O)[nH]c3c2c1 (stereo partly drawn) | inconclusive: 15.1% | – |
| O=C(Cn1cnc2cc([N+](=O)[O-])ccc2c1=O)Nc1ccc(N2CCOCC2)cc1 | – | inconclusive: 12.6 µM [falling, partial curve, poor fit] |
| Cc1ccc2c(c1)C(=O)C(=O)N2CC(=O)OC(C)C | inactive | – |
| Cc1onc(-c2ccccc2)c1C(=O)N/N=C/c1ccc([N+](=O)[O-])s1 | inconclusive: -3.74% | – |
| CCOC(=O)c1cnn(-c2nc(-c3ccccc3F)cs2)c1C(F)(F)F | inconclusive: 7.36% | – |
| CN1C(=O)/C(=C/c2ccccc2F)Sc2ccc(C(=O)N3CCCC3)cc21 | inconclusive: -2.73% | – |
| CN1C(=O)N(CN2CCCCC2)C2C1N(C)C(=O)N2CN1CCCCC1 (stereo not drawn) | inconclusive: 16.4% | – |
| Cc1nonc1C(=O)N/N=C/c1cc2c(cc1Br)OCO2 | – | inconclusive: 8.91 µM [falling, partial curve] |
| O=C1COc2ccc(-c3csc(NCC4CCCO4)n3)cc2N1 (stereo not drawn) | inactive | – |

A few values from above:
O=C(Cn1cnc2cc([N+](=O)[O-])ccc2c1=O)Nc1ccc(N2CCOCC2)cc1 – Potency: inconclusive: 12.6 µM [falling, partial curve, poor fit]
O=C(NCc1ccco1)c1ccc2nc3sc4c(c3c(=O)n2c1)CCCC4 – activity change, negative = inhibition: inactive

Remaining list, next part.

| Structure (SMILES) | activity change, negative = inhibition | Potency |
| --- | --- | --- |
| Cn1ncc(Cl)c1C(=O)NC(=S)Nc1sc2c(c1C#N)CCCCC2 | inactive | – |
| Cc1cccc(C)c1OCCn1nc(C(=O)O)c2ccccc2c1=O | – | inconclusive: 29.1 µM [rising, partial curve, poor fit] |
| CC(C)C(O)(C#CCN1CCCCCC1)c1ccccc1 (stereo not drawn) | inconclusive: 0.093% | – |
| COc1ccccc1Nc1nc(-c2sc(NC(=O)c3ccccc3)nc2C)cs1 | – | inconclusive: 20 µM [falling, partial curve, poor fit] |
| CCCCNC(=O)NNC(=O)c1ccoc1C | – | inconclusive: 22.4 µM [falling, single point] |
| CC(=O)c1sc(NS(=O)(=O)c2ccc(C)cc2)nc1-c1ccccc1 | inconclusive: 22.6% | – |
| CNC(=O)c1cc2c(-c3ccccc3)nn(C)c2s1 | inconclusive: 3.55% | – |
| C/C(N)=C(/C#N)C(=O)COC(=O)CSc1ccccc1 | inactive | – |
| COc1ccc(O)c(/C=N/N=C2/C(=O)Nc3ccccc32)c1 | inconclusive: 1.03% | – |
| COc1cccc(C(=O)Nc2nnc(C(C)C)s2)c1 | – | inconclusive: 16.4 µM [falling, partial curve] |
| Nc1nnc(-c2ccc(Cl)cc2)s1 | – | inconclusive: 18.4 µM [falling, single point] |
| COc1cc(C(=O)NCCc2cn3ccc(C)cc3n2)cc(OC)c1OC | inactive | – |
| O=C(O)c1nn(CCOc2ccccc2F)c(=O)c2ccccc12 | inconclusive: 2.2% | – |
| N#Cc1cccc(NC(=O)CNc2cc(S(=O)(=O)N3CCOCC3)ccc2N2CCCC2)c1 | – | inconclusive: 20.6 µM [falling, partial curve, poor fit] |
| Cc1nnc(SC2CC(=O)N(c3ccccc3)C2=O)s1 (stereo not drawn) | – | inconclusive: 25.9 µM [rising, single point] |
| Cn1c(=O)c2c(nc3sccn32)n(C)c1=O | inconclusive: 26% | – |
| COc1ccc2cc3cc(C(=O)NCc4ccco4)oc3nc2c1 | inactive | – |
| COC(=O)Nc1ccc(S(=O)(=O)N2c3ccccc3CCC2C)cc1 (stereo not drawn) | – | inconclusive: 35.5 µM [falling, partial curve, poor fit] |
| Cc1cc(Cl)ccc1NC(=O)CCC(=O)N/N=C/c1cc([N+](=O)[O-])ccc1O | inactive | – |
